Data: PubChem BioAssay AID1671190 (National Center for Advancing Translational Sciences (NCATS), 2021)
The whole screen tested about 580,000 compounds, of which about 6,100 (1.1%) were called active. Another 15% or so got no clear call; they are omitted. Calls come from the whole dose curve; as a rule, active = well fitted inhibition curve with a large enough effect; inconclusive = small, poorly fitted or top-dose-only effect, or another doubt; inactive = no such curve, though single readings can be large or run the other way. The entries are a selection whose mix differs from that of the whole data set. Entries without a call were filed so in the source. Where a structure was tested more than once in an assay, its records may differ in their call.

Sequences of proteins named here, by UniProt entry; tags and fusion partners are left off.
UniProt P18054, whole entry, looked up: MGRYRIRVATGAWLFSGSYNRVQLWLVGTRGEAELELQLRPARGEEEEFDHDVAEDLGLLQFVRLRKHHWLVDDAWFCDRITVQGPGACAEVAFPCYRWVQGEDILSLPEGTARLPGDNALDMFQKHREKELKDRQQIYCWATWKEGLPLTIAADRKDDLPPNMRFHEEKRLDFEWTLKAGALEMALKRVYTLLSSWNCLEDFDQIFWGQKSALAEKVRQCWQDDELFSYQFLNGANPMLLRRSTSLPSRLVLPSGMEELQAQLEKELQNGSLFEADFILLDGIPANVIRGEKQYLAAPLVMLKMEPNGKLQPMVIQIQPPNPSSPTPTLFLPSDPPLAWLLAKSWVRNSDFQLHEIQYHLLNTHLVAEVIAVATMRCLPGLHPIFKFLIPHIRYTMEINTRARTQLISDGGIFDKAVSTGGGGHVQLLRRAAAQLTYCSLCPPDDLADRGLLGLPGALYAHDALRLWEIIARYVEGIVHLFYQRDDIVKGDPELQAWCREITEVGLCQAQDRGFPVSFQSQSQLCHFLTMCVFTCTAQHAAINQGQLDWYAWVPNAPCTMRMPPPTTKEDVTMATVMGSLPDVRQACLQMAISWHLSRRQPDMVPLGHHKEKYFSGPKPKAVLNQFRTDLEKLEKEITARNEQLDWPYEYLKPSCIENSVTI

Target: Polyunsaturated fatty acid lipoxygenase ALOX12 (Homo sapiens) (UniProt P18054)
Test: Primary qHTS assay for inhibitors of human arachidonate 12S-lipoxygenase (ALOX12): Round 2
Conditions: purified 12hLO, xylenol orange hydroperoxide absorbance; activity change, negative = inhibition: at 0.00344 µM
Summary of the method: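 Hydroperoxide product was detected by ferrous iron/xylenol orange as the 573 to 405 nm absorbance ratio. Arachidonic acid at 40 uM (final) was turned over for 30 min at room temperature by 150 nM human 12hLO, pH 7.0 Hepes buffer, after 15 min compound preincubation.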
% is set by controls: 0 for no effect and ±100 for the full control effect; potency is the fitted concentration of half-maximal effect.

Structure (SMILES) | Potency | activity change, negative = inhibition [%]
c1coc(-c2cc3nc(NCc4ccc5c(c4)OCO5)ccn3n2)c1 | active: 31.6 µM | –
Clc1ccccc1CSc1nnc(-c2ccco2)c(-c2ccco2)n1 | active: 3.55 µM | –
C/C(=C(\CCO)SS/C(CCO)=C(\C)N(C=O)Cc1cnc(C)nc1N)N(C=O)Cc1cnc(C)nc1N | – | 12.8
C=C1c2ccccc2O[C@H](C(=O)OCC)[C@@H]1C1CCCCC1 | active: 20 µM | –
Clc1ccc2c(c1)C(N1CCNCC1)=Nc1ccccc1O2 | – | -10.5
CCCCC/C(C=O)=C\c1ccccc1 | – | -46.5
OCCN1CCN(CCCN2c3ccccc3Sc3ccc(C(F)(F)F)cc32)CC1 | – | -0.486
c1ccc(CC2=NCCN2)cc1 | – | -20.1
CCCC(=O)c1cc(O)c(O)cc1O | active: 1.65 µM | –
Oc1c(Br)cc(Br)c2cccnc12 | – | 1.24
Nc1nc(=O)n([C@@H]2O[C@H](CO)[C@@H](O)[C@@H]2F)cc1I | – | 15.7
O=C(NOCC1CC1)c1ccc(F)c(F)c1Nc1ccc(I)cc1Cl | – | -0.0857
CC1(C)S[C@@H]2[C@H](N=CN3CCCCCC3)C(=O)N2[C@H]1C(=O)O | – | -49.6
CS(=O)(=O)c1ccc([C@@H](O)[C@@H](CF)NC(=O)C(Cl)Cl)cc1 | – | -31.4
O=c1[nH]sc2cc(Cl)ccc12 | – | 1.9
O=C(O)Cn1c(C(=O)Nc2nc(-c3ccccc3Cl)cs2)cc2ccccc21 | – | 23.5
Nc1ccc(S(=O)(=O)NC(=O)c2ccccc2)cc1 | – | -1.83
C=C(CC)C(=O)c1ccc(OCC(=O)O)c(Cl)c1Cl | – | -16.5
CCCOC(C(=O)OC1CCN(C)CC1)(c1ccccc1)c1ccccc1 | – | 13.8
C1N2CN3CN1CN(C2)C3 | – | 4.18
COc1cccc(CCc2ccccc2OCC(CN(C)C)OC(=O)CCC(=O)O)c1 (stereo not given) | – | -26.5
CC(C)OC(=O)C(C(=O)OC(C)C)=C1SC=CS1 | – | -32.7
Cc1ncc([N+](=O)[O-])n1C | – | 15.1
CCOc1ncc(F)c(=O)[nH]1 | – | 24.9

Structure (SMILES) | Potency | activity change, negative = inhibition [%]
COC(=O)C1=C(C)NC(COC(N)=O)=C(C(=O)OC(C)C)C1c1cccc(Cl)c1Cl (stereo not given) | – | 0.156
Cc1cccc(C(=O)N=c2c(C#N)cc3c(=O)n4cccc(C)c4nc3n2Cc2ccco2)c1 | active: 35.5 µM | –
O=C1OC(c2ccc(O)cc2)(c2ccc(O)cc2)c2ccccc21 | – | -14.3
COc1cc(C(=S)N2CCOCC2)ccc1O | – | -5.54
COc1ccc(/C=N/NC(=O)c2ccncc2)cc1OC | – | 17.8
Oc1ccc(C2CNCCc3c2cc(O)c(O)c3Cl)cc1 (stereo not given) | – | 6.75
COc1ccc(CN2CCN(Cc3cccc(OC)c3OC)CC2)cc1 | active: 0.447 µM | –
CC(C(=O)O)c1cccc(Oc2ccccc2)c1 (stereo not given) | – | 52.4
C[C@@H]1CN(CCCn2c3ccccc3c3ccccc32)C[C@H](C)N1 | – | 20.5
C[C@@H](NCCCc1cccc(C(F)(F)F)c1)c1cccc2ccccc12 | active: 8.91 µM | –
CC[N+](C)(C)c1cccc(O)c1 | – | -10.9
OC(Cn1cncn1)(Cn1cncn1)c1ccc(F)cc1F | – | 28.4
CC(=O)Nc1ccccc1-c1c(C)nn2c1N(CCCc1ccccc1)CCC2 | active: 15.8 µM | –
Cc1cn[nH]c1 | – | 17.9
OCCN1CCN(CC/C=C2/c3ccccc3Sc3ccc(C(F)(F)F)cc32)CC1 | – | 31.8
NNc1c(F)c(F)c(Br)c(F)c1F | active: 12.6 µM | –
C[C@@H](O)[C@H]1C(=O)N2C(C(=O)O)=C([C@H]3CCCO3)S[C@H]12 | – | -32.2
O=C(O)CCCCCCCC(=O)O | – | 1.53
CC(O)CN(CCN(CC(C)O)CC(C)O)CC(C)O (stereo not given) | – | -59.3
CC(=O)c1c(C)[nH]c(C(=O)C(C)Sc2ccc(F)c(Cl)c2)c1C (stereo not given) | active: 44.7 µM | –
Cc1ccc(C(=O)c2ccc(CC(=O)O)n2C)cc1 | – | 1.65
CCN[C@H]1CN(CCCOC)S(=O)(=O)c2sc(S(N)(=O)=O)cc21 | – | 9.75
NS(=O)(=O)c1cc(C2(O)NC(=O)c3ccccc32)ccc1Cl (stereo not given) | – | 19.3
CCn1c(-c2cc3c(C(F)(F)F)nn(C)c3s2)n[nH]c1=S | active: 10 µM | –
CCOC(=O)C1=C(CN(CC)Cc2ccccc2)NC(=O)NC1c1ccc(Cl)cc1 (stereo not given) | active: 22.4 µM | –

Structure (SMILES) | Potency | activity change, negative = inhibition [%]
NNCCc1ccccc1 | – | 6.13
CCCCCCCCCCCCCCCC(=O)OC(C)C | – | -15.6
COc1ccc(NC(=S)NC(=O)/C=C/c2ccco2)c(OC)c1 | active: 35.5 µM | –
COC(=O)/C=C(/C)N | – | -9.06
CCOC(=O)c1cc(=O)c2c(OCC(COc3cccc4oc(C(=O)OCC)cc(=O)c34)OC(=O)[C@@H](N)CCCCN)cccc2o1 | – | 46
CN1CCC(=C2c3ccccc3C=Cc3ccccc32)CC1 | – | 8.13
Cc1ccc(OCC(=O)N/N=C/C=C/c2ccco2)c(Br)c1 | active: 39.8 µM | –
O=C(O)Cc1ccc(-c2ccccc2)cc1 | – | -22.8
Cc1c(Cn2ccnc2)c2ccccc2n1CCC(=O)O | – | -31.3
CCCCCCCCCCCCCCCCCCOCC(O)CO (stereo not given) | – | -10.9
C[N+](C)(CCOc1ccccc1)Cc1cccs1 | – | -12.1
Oc1ccccc1 | – | 17.4
CC(=O)Oc1ccccc1C(=O)Nc1ncc([N+](=O)[O-])s1 | – | -0.464
CCOC(=O)NC1(NC(C)C)Oc2ccccc2O1 | active: 25.1 µM | –
CCCOC(=O)c1ccccc1 | – | -2.95
O=c1c(C(c2c(O)nc3n(c2=O)CCS3)c2cccc3ccccc23)c(O)nc2n1CCS2 | active: 31.6 µM | –
N#C/C(=C/c1cccc(F)c1)S(=O)(=O)c1ccc(Br)cc1 | active: 22.4 µM | –
COc1cc(C(=O)OCCCN2CCCN(CCCOC(=O)c3cc(OC)c(OC)c(OC)c3)CC2)cc(OC)c1OC | – | 0.912
O=C(Nc1ccc(Cl)cc1)Nc1ccc(Cl)c(Cl)c1 | – | 5.18
O=C1c2c(O)cccc2Cc2cccc(O)c21 | – | -25.5
CCOc1cc(NC(=S)Nc2ccccc2OC)c(OCC)cc1NC(=O)c1ccccc1C | active: 44.7 µM | –
NS(=O)(=O)c1cc2c(cc1Cl)NCNS2(=O)=O | – | -12.1
C[N+]1(C)CCC(=C(c2ccccc2)c2ccccc2)CC1 | – | -44.6
NC(N)=N/N=C/c1c(Cl)cccc1Cl | – | 25.1
CC(=O)NS(=O)(=O)c1ccc(N=c2ssc3c2-c2ccc(C)cc2NC3(C)C)cc1 | active: 15.8 µM | –

Shown as comma-separated lines: entries from further up
Structure (SMILES),Potency,"activity change, negative = inhibition [%]"
C/C(=C(\CCO)SS/C(CCO)=C(\C)N(C=O)Cc1cnc(C)nc1N)N(C=O)Cc1cnc(C)nc1N,–,12.8
C=C1c2ccccc2O[C@H](C(=O)OCC)[C@@H]1C1CCCCC1,active: 20 µM,–
Clc1ccc2c(c1)C(N1CCNCC1)=Nc1ccccc1O2,–,-10.5
